These are yes or no findings as the source states them, for the method shown. For some assays here: Where a sequence is shown, tags or fusion partners need not be part of it.
T1: EnvZ, a histidine kinase receptor from E. coli (E. coli), P0AEJ4
T1 chain: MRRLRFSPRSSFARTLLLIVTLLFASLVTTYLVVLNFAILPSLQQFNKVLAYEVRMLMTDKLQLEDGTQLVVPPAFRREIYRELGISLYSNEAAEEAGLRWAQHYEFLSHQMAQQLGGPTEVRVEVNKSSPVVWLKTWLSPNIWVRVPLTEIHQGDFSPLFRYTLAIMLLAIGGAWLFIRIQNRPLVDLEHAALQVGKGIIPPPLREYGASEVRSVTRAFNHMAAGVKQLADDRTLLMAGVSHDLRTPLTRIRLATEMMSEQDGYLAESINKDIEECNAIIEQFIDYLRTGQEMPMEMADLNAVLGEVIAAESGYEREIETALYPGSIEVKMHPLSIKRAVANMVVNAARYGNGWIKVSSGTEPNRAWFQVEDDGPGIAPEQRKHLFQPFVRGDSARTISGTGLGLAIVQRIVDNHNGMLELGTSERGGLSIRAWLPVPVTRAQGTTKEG

B1: EnvZ, a histidine kinase receptor from E. coli, P0AEJ4 1-450 (receptor)
chain: T1 chain
B2: Etk-NM (Etk, an E. coli receptor tyrosine kinase, expressed without Mistic) (receptor, UniProt P38134 1-726)
chain: MTTKNMNTPPGSTQENEIDLLRLVGELWDHRKFIISVTALFTLIAVAYSLLSTPIYQADTLVQVEQKQGNAILSGLSDMIPNSSPESAPEIQLLQSRMILGKTIAELNLRDIVEQKYFPIVGRGWARLTKEKPGELAISWMHIPQLNGQDQQLTLTVGENGHYTLEGEEFTVNGMVGQRLEKDGVALTIADIKAKPGTQFVLSQRTELEAINALQETFTVSERSKESGMLELTMTGDDPQLITRILNSIANNYLQQNIARQAAQDSQSLEFLQRQLPEVRSELDQAEEKLNVYRQQRDSVDLNLEAKAVLEQIVNVDNQLNELTFREAEISQLYKKDHPTYRALLEKRQTLEQERKRLNKRVSAMPSTQQEVLRLSRDVEAGRAVYLQLLNRQQELSISKSSAIGNVRIIDPAVTQPQPVKPKKALNVVLGFILGLFISVGAVLARAMLRRGVEAPEQLEEHGISVYATIPMSEWLDKRTRLRKKNLFSNQQRHRTKNIPFLAVDNPADSAVEAVRALRTSLHFAMMETENNILMITGATPDSGKTFVSSTLAAVIAQSDQKVLFIDADLRRGYSHNLFTVSNEHGLSEYLAGKDELNKVIQHFGKGGFDVITRGQVPPNPSELLMRDRMRQLLEWANDHYDLVIVDTPPMLAVSDAAVVGRSVGTSLLVARFGLNTAKEVSLSMQRLEQAGVNIKGAILNGVIKRASTAYSYGYNYYGYSYSEKE

Key:
[1] = molecular target: T1, EnvZ, a histidine kinase receptor from …; experiment: AUC; sedimentation velocity, 40,000 rpm, 20°C, absorbance scans; EnvZ extracted by 20 mM DPh and exchanged with 0.5 mM DDM; 0.8 OD in 50 mM NaCl, 20 mM Tris, pH 7.5; one-component finite element fit, Tanford equation with the constraint 0 < Md/Mp < 2; both purified; conditions: remark: other sources report otherwise
[2] = molecular target: Etk-NM (Etk, an E. coli receptor tyrosine kinase, expressed without Mistic) (E. coli) (UniProt P38134); experiment: AUC; sedimentation velocity, 40,000 rpm, 20°C, absorbance scans; Etk-NM extracted by 18 mM FC12, in 2 mM FC12; 0.8 OD in 50 mM NaCl, 20 mM Tris, pH 7.5; two samples, with (D2O, 1.0260 g/cm^3) and without (1.0105 g/cm^3) density adjustment; one-component finite element fit; both purified

Binder | binding [1] | binding [2]
B1 | no binding (tested: 0.8 OD) | –
B2 | – | no binding (tested: 0.8 OD)

— article PMC2219997
